Laboratory results from patent US9980973B2, “Bicyclic heterocycle compounds and their uses in therapy” (ASTEX THERAPEUTICS LIMITED, priority 2012, dated 2018).
pEC50, pIC50: −log10 of the molar value. Where a name gives a salt, the structure may show the parent alone. Some results were stated once for a whole list of compounds, not compound by compound.

By UniProt entry, the sequences of proteins in these tests, tags left out. Residues count along the entry.
UniProt P98170, 252-350: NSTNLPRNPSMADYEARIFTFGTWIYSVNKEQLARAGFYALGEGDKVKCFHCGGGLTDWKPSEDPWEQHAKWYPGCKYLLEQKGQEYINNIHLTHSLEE
UniProt Q13490, 267-363: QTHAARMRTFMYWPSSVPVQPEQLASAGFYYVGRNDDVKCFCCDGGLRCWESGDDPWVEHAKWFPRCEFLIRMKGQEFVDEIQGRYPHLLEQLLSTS

Columns and labels:
[1] = tested on: EVSA-T (human breast carcinoma); assay: Anti-proliferative activity, Alamar Blue assay, EVSA-T; type: cell-based; settings: read-out: EC50 in EVSA-T cell line assays
[2] = biological target: T1, BIR3 domain of human XIAP (Homo sapiens, UniProt P98170); assay: XIAP in vitro competitive displacement binding assay (fluorescence polarization); settings: or at least 50% inhibition of the activity at 1 μM
T1 construct: BIR3 domain of human XIAP (residues 252-350) fused to a His-tag; His-tag (cleaved yes); made in house; host or cells: Escherichia coli

[3] = biological target: T2, BIR3 domain of human cIAP-1 (Homo sapiens, UniProt Q13490); assay: cIAP-1 in vitro competitive displacement binding assay (fluorescence polarization); settings: or at least 50% inhibition of the activity at 0.1 μM; read-out: IC50 in the cIAP1 assay
T2 construct: human cIAP-1 (residues 267-363) fused to a GST-tag; GST-tag (cleaved yes); made in house; host or cells: Escherichia coli

Compound | pEC50 [1] | pIC50 [2] | pIC50 [3]
C[C@@H]1CN(CC(=O)N2CC(C)(C)c3ncc(C(O)c4ccc(F)cc4F)cc32)[C@@H](CN2[C@H](C)COC[C@H]2C)CN1 (single isomer, unassigned) [Example 104, (R or S)-1-{6-[(2,4-Difluorophenyl)(hydroxy)meth-yl]-3,3-dimethyl-1H,2H,3H-pyrrolo[3,2-b]pyridin-1-yl}-2-[(2R,5R)-2-{[(3R,5R)-3,5-dimethylmorpholin-4-yl]methyl}-5-methylpiperazin-1-yl]ethan-1-one dihydrochloride] | > 6.00 | – | –
C[C@@H]1CN(CC(=O)N2CC(C)(C)c3ncc(C(O)c4ccc(F)c(F)c4)cc32)[C@@H](CN2[C@H](C)COC[C@H]2C)CN1 (single isomer, unassigned) [Example 110, (R or S)-1-{6-[(3,4-Difluorophenyl)(hydroxy)meth-yl]-3,3-dimethyl-1H,2H,3H-pyrrolo[3,2-b]pyridin-1-yl}-2-[(2R,5R)-2-{[(3R,5R)-3,5-dimethylmorpholin-4-yl]methyl}-5-methylpiperazin-1-yl]ethan-1-one dihydrochloride] | > 6.00 | – | –
C[C@@H]1CN(CC(=O)N2CC(C)(C)c3ncc(C(O)c4ccccc4)cc32)[C@@H](CN2[C@H](C)COC[C@H]2C)CN1 (single isomer, unassigned) [Example 114, 2-[(2R,5R)-2-{[(3R,5R)-3,5-Dimethymorpholin-4-yl]methyl}-5-methylpiperazin-1-yl]-1-{(R or S)-6-[hydroxy(phenyl)methyl]-3,3-dimethyl-1H,2H,3H-pyrrolo[3,2-b]pyridin-1-yl}ethan-1-one dihydrochloride] | > 6.00 | – | –
C[C@@H]1CN(CC(=O)N2CC(C)(C)c3ncc(Cc4ccc(F)cc4)cc32)[C@@H](CN2CCCC(F)(F)C2)CN1 [Example 3, 2-[(2R,5R)-2-[(3,3-Difluoropiperidin-1-yl)methyl]-5-methylpiperazin-1-yl]-1-{6-[(4-fluorophenyl)methyl]-3,3-dimethyl-1H,2H,3H-pyrrolo[3,2-b]pyridin-1-yl}ethan-1-one dihydrochloride] | – | > 6.00 | > 7.00
C[C@@H]1CN(CC(=O)N2CC(C)(C)c3ncc(Cc4ccc(F)cc4)cc32)[C@@H](CN2CCC[C@H]2CF)CN1 [Example 30, 2-[(2R,5R)-2-{[(2S)-2-(Fluoromethyl)pyrrolidin-1-yl]methyl}-5-methylpiperazin-1-yl]-1-{6-[(4-fluorophenyl)methyl]-3,3-dimethyl-1H,2H,3H-pyrrolo[3,2-b]pyridin-1-yl}ethan-1-one dihydrochloride] | – | > 6.00 | > 7.00
C[C@@H]1CN(CC(=O)N2CC(C)(C)c3ncc(Cc4ccc(F)cc4)cc32)[C@@H](CN2CCOC(C#N)C2)CN1 (stereo partly drawn) [Example 31, 4-{[(2R,5R)-1-(2-{6-[(4-Fluorophenyl)methyl]-3,3-dimethyl-1H,2H,3H-pyrrolo[3,2-b]pyridin-1-yl}-2-oxoethyl)-5-methylpiperazin-2-yl]methyl}morpholine-2-carbonitrile] | – | > 6.00 | > 7.00
